Some of the results follow. Single values of this set are uncertain.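 Many melting curves are irregular; where none melted, Tm was taken as 64 °C.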
Compound: CCc1cnccc1C(=O)Nc1cc2c(cc1F)NC(=O)CC2
Assay: melting temperature shift (DMSO Tm minus MBE1-treated Tm) in cellular thermal proteome profiling; higher = less thermal stabilization by MBE1 (negative = stabilized by MBE1)
Settings: A375

Chains of the proteins cited; added tags and fusions are not shown. Lines headed by an entry give the natural chain unless they say otherwise; changes in a name come on top.
UniProt Q9UNQ0: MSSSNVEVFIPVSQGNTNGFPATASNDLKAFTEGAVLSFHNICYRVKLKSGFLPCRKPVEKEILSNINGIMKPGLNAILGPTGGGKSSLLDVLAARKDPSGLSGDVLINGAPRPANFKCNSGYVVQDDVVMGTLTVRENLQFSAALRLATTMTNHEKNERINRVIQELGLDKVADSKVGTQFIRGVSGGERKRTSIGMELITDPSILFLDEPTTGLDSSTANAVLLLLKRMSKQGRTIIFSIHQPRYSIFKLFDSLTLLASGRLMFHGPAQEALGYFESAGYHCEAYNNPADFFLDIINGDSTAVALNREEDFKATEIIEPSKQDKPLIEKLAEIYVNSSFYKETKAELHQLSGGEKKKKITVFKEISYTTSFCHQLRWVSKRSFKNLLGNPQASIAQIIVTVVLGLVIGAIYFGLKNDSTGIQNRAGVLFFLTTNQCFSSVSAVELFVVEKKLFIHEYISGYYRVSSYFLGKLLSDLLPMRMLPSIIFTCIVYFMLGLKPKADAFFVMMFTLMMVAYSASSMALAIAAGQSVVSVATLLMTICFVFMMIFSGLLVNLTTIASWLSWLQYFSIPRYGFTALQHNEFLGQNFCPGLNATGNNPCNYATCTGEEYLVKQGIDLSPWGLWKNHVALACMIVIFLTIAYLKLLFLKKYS
UniProt Q9UHN1: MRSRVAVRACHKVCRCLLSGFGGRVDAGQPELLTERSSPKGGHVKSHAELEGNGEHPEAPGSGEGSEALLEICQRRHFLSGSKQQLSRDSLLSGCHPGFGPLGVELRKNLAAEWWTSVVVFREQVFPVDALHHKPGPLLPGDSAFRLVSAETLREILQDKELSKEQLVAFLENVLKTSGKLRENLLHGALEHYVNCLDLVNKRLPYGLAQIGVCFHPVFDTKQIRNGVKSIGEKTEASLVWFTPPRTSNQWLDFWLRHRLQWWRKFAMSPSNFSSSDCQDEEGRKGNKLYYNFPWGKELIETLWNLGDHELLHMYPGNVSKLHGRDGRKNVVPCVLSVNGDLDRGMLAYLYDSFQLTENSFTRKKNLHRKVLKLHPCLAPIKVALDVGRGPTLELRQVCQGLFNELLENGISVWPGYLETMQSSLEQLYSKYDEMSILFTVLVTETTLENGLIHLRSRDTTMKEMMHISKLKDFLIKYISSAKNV
UniProt Q9ULW3: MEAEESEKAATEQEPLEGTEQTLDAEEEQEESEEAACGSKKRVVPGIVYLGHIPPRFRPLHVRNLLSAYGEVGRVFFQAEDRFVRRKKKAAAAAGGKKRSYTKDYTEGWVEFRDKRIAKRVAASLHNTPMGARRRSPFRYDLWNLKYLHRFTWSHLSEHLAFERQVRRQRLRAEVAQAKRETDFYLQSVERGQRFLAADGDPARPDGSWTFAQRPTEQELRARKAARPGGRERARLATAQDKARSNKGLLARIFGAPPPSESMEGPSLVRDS
UniProt Q9UMF0: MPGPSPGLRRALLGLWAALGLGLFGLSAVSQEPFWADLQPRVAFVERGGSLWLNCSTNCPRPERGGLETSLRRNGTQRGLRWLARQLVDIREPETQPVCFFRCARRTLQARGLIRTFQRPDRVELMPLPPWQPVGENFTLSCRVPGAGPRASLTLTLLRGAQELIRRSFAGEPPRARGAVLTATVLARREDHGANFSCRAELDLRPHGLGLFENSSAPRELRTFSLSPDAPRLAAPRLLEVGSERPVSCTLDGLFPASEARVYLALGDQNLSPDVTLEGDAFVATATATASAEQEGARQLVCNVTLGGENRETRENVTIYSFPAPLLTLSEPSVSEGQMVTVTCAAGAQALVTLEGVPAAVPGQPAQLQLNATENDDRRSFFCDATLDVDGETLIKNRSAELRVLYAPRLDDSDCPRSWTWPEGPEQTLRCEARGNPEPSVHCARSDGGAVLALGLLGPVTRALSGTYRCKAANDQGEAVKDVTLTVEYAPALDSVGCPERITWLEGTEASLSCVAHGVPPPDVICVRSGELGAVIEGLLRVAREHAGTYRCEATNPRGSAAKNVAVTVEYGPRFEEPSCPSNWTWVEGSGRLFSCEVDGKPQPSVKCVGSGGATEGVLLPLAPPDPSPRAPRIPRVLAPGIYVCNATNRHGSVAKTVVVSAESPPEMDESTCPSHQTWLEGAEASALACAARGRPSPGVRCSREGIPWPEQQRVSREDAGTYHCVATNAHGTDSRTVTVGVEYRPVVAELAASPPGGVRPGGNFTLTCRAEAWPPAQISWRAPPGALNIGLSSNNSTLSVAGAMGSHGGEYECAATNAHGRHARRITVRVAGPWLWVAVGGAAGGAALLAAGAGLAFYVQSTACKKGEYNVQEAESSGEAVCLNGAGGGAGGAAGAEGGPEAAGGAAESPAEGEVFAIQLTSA
UniProt Q9UK97: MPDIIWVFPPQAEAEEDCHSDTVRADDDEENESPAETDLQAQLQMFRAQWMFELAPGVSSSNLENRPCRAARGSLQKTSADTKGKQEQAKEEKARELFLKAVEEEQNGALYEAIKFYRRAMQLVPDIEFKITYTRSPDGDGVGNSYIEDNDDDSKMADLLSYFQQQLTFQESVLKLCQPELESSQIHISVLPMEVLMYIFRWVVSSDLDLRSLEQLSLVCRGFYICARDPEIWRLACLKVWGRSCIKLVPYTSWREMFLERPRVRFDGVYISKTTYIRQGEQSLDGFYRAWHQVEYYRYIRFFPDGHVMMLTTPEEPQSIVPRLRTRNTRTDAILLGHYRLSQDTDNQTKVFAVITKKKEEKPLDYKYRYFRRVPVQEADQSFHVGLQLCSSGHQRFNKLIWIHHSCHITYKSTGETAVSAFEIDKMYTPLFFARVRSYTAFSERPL
UniProt Q9UMX1: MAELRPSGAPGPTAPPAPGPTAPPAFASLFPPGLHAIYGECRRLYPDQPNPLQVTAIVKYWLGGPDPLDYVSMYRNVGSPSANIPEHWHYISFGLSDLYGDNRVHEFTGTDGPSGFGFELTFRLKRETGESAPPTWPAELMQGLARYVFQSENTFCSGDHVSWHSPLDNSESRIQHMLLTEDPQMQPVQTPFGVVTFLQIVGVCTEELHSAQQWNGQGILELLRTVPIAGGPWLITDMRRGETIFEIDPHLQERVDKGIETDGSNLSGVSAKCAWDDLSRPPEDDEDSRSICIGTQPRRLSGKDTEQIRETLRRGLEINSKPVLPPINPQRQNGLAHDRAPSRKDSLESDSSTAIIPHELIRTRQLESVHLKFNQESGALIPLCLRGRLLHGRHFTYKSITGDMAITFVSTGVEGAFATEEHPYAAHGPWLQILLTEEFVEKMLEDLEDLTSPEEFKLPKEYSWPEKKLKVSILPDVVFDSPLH
UniProt Q9UGV2: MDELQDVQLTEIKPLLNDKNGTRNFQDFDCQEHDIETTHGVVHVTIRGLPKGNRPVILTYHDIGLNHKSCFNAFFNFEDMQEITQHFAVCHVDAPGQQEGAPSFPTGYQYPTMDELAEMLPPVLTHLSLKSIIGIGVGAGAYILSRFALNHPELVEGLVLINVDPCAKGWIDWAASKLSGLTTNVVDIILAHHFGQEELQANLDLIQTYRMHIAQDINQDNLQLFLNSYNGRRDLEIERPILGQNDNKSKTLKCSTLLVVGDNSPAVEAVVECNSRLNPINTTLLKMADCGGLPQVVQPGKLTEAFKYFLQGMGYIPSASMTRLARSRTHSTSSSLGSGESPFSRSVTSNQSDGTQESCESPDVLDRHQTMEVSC
UniProt Q9UN86: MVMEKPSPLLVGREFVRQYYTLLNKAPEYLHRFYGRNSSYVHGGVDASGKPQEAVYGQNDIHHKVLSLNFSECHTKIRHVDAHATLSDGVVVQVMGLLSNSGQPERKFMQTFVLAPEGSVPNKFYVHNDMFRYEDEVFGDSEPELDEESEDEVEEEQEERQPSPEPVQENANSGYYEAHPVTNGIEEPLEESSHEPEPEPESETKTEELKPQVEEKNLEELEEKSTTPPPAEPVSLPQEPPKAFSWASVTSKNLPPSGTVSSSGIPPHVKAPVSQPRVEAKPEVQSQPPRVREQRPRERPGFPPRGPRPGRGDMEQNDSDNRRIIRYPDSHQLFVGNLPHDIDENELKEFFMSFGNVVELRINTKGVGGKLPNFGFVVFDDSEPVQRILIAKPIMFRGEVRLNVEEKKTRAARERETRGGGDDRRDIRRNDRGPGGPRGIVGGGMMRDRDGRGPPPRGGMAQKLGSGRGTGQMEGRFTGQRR
UniProt Q9ULX9: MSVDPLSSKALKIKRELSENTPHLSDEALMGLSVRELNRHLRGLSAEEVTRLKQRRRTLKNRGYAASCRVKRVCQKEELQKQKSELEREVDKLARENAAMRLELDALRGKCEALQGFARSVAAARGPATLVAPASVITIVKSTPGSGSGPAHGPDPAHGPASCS
UniProt Q9UKF7: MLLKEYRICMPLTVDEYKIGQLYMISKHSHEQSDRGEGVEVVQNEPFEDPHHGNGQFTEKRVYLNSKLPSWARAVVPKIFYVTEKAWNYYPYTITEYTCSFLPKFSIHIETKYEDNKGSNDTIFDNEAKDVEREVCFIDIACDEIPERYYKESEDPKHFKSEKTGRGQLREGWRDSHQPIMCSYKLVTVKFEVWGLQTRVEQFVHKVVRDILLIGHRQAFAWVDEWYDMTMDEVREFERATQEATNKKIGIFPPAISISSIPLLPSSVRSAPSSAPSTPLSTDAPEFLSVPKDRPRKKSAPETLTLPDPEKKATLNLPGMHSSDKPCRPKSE
UniProt Q9UQR0: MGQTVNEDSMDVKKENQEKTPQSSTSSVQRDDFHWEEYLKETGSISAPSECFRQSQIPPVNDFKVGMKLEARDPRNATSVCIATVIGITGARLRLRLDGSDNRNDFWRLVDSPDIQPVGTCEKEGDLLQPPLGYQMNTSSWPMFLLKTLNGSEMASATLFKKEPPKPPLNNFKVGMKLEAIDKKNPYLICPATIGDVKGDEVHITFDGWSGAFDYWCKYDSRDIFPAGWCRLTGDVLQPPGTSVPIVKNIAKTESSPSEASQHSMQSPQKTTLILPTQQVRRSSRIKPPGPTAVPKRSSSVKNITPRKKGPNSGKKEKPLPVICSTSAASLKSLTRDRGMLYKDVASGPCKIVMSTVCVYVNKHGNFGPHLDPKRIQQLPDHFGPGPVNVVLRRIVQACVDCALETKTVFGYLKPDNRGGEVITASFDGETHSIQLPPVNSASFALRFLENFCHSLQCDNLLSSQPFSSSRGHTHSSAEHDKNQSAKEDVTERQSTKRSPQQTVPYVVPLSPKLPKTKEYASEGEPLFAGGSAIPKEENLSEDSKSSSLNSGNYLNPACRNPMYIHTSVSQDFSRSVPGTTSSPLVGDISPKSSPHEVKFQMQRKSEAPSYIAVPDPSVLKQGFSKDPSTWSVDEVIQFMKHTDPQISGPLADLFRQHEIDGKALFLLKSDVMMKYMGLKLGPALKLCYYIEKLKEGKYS
UniProt Q9UHR6: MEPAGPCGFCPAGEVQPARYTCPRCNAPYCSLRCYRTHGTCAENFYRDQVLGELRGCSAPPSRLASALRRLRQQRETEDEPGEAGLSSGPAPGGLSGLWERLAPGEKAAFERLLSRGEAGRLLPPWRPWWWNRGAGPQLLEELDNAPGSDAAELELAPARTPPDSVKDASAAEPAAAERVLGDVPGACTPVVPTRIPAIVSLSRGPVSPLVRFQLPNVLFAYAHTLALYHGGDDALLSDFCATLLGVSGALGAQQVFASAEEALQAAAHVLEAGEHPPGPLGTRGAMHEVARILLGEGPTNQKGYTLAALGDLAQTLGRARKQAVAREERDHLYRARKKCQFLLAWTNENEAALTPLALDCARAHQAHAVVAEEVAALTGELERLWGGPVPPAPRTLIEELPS
UniProt Q9UJX4, whole entry: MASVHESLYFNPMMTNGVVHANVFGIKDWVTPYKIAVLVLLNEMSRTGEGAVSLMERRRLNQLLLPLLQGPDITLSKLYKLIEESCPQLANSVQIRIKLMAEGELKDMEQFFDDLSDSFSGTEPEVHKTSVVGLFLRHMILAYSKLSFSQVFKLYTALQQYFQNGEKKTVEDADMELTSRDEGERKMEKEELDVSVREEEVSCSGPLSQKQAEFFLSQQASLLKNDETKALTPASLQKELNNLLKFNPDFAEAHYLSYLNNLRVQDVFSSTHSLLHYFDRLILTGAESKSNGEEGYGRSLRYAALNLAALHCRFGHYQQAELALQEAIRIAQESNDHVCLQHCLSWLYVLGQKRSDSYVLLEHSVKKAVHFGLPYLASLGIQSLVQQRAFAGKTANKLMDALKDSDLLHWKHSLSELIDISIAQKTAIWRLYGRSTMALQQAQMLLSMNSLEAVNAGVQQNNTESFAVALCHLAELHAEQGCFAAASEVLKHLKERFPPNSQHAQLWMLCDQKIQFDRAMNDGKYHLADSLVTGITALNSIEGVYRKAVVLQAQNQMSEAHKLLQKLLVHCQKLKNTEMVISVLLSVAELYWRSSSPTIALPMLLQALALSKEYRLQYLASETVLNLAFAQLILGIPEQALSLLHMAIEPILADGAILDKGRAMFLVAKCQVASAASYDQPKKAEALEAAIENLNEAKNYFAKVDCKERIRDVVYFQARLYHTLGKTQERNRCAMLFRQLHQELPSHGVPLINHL

Target | melting temperature shift (MBE1 concentration: 1 uM) [°C] | melting temperature shift (MBE1 concentration: 100 nM) [°C]
ABCG2 (UniProt Q9UNQ0) | -1.92 | –
RCOR1 (UniProt Q9UKL0) | -0.752 | -1.37
POLG2 (UniProt Q9UHN1) | -1.57 | –
ASF1A (UniProt Q9Y294) | 1.14 | 0.519
VDAC3 (UniProt Q9Y277) | -2.83 | –
LIMA1 (UniProt Q9UHB6) | -2.38 | -4.52
UniProt Q9ULW3 | 0.715 | 1.54
UniProt Q9ULV0 | 0.588 | –
UBQLN1 (UniProt Q9UMX0) | -3.16 | –
UniProt Q9UMF0 | -0.0672 | -4.78
FBXO9 (UniProt Q9UK97) | -0.562 | -0.055
SSX2IP (UniProt Q9Y2D8) | – | 0.0366
UniProt Q9UMX1 | 1.42 | 0.525
NDRG3 (UniProt Q9UGV2) | -0.255 | -0.402
UBQLN2 (UniProt Q9UHD9) | -2.86 | -1.71
UniProt Q9UKI2 | -5.75 | –
G3BP2 (UniProt Q9UN86) | 0.519 | 0.446
UniProt Q9UJ14 | -3.24 | –
UniProt Q9UNA1 | – | 2.77
UniProt Q9ULX9 | -0.189 | 2.11
BAIAP2L1 (UniProt Q9UHR4) | -0.134 | -0.718
UniProt Q9UFH2 | – | -0.0738
PITPNC1 (UniProt Q9UKF7) | -0.464 | 0.324
UniProt Q9UGK8 | -0.0515 | -0.926
SCML2 (UniProt Q9UQR0) | 11.8 | –
UniProt Q9UJU2 | – | -0.698
TBC1D24 (UniProt Q9ULP9) | 0.733 | 0.434
ZNHIT2 (UniProt Q9UHR6) | – | -0.618
ANAPC5 (UniProt Q9UJX4) | 0.617 | 0.904

Part of the list above, as labelled records:
NDRG3 (UniProt Q9UGV2)
  melting temperature shift (MBE1 concentration: 1 uM) [°C]: -0.255; melting temperature shift (MBE1 concentration: 100 nM) [°C]: -0.402
SCML2 (UniProt Q9UQR0)
  melting temperature shift (MBE1 concentration: 1 uM) [°C]: 11.8
